Results published in the supplement of paper PMC6411743.
± gives the standard deviation of the averaged measurements. This is a selection; strong and weak results do not stand in their true shares.

By UniProt entry, the sequences of proteins in these tests, tags left out. Where a name states a change or a piece, a line headed by the entry shows the natural chain unless it says otherwise.
UniProt Q15057: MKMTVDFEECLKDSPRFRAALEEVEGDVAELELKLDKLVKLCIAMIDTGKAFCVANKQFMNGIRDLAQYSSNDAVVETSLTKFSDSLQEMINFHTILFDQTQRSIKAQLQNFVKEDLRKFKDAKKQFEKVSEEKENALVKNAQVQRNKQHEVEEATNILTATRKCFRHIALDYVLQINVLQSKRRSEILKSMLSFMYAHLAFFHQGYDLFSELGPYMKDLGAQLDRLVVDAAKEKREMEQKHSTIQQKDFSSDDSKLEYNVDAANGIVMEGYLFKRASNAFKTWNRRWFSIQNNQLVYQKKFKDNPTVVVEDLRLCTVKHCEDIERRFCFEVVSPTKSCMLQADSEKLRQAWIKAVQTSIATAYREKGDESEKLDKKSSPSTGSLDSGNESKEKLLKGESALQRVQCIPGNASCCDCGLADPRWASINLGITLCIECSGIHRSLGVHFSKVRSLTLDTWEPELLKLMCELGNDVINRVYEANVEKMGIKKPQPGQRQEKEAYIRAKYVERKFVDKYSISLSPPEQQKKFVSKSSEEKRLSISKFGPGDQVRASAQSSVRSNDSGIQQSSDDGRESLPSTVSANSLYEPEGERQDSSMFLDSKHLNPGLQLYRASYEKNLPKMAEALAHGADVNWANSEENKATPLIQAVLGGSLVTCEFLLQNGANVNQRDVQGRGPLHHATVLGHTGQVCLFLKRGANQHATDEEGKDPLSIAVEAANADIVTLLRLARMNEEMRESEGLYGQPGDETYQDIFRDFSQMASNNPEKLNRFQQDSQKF
UniProt Q13630: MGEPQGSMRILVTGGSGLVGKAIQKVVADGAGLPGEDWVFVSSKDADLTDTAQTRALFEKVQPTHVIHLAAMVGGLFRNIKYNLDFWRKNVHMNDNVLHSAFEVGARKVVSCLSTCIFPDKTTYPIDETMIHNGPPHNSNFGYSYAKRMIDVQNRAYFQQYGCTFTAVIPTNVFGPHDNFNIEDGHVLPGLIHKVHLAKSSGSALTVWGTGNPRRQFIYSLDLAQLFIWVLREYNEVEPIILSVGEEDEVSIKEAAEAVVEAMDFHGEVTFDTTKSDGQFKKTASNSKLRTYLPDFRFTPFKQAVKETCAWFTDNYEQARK
UniProt Q13188: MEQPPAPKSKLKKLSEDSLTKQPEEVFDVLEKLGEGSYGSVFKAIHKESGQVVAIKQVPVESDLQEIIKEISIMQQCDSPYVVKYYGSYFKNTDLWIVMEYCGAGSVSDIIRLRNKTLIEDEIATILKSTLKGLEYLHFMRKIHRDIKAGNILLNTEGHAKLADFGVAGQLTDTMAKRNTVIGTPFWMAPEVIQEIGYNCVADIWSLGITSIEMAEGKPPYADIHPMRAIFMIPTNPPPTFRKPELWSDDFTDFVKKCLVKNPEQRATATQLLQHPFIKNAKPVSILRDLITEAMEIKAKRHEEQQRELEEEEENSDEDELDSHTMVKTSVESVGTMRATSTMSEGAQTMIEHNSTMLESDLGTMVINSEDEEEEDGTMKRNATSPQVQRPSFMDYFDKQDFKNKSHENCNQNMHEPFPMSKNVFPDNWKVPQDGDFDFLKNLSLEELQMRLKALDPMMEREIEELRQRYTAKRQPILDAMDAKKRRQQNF
UniProt Q14188: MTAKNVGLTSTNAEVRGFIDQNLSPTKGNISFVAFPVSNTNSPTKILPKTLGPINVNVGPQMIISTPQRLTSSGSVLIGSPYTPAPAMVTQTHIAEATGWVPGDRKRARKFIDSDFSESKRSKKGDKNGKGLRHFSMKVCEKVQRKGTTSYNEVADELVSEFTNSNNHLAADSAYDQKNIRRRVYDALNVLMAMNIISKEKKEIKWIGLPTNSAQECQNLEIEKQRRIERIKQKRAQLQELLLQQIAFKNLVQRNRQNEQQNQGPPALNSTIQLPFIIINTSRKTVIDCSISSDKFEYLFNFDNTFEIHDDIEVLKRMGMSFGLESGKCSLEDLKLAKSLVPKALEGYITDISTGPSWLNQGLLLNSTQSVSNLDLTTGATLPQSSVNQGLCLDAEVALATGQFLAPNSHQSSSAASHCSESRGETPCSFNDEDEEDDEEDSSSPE
UniProt Q13243: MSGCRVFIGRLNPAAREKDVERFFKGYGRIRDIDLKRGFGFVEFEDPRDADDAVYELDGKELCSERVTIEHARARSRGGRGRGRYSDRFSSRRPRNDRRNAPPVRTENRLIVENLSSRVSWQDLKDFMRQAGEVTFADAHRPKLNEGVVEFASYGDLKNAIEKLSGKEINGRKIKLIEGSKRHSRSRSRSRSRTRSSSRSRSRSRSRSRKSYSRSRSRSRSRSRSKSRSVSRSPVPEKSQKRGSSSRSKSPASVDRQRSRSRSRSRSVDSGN
UniProt Q12981: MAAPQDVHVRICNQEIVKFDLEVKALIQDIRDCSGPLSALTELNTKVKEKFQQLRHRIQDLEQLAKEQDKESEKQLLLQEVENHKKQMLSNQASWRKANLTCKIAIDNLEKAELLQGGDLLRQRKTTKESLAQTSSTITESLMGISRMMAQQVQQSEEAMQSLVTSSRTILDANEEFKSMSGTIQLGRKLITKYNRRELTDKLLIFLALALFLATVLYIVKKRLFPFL
UniProt Q14061: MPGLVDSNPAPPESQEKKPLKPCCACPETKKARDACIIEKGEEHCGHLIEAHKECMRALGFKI
UniProt Q13356: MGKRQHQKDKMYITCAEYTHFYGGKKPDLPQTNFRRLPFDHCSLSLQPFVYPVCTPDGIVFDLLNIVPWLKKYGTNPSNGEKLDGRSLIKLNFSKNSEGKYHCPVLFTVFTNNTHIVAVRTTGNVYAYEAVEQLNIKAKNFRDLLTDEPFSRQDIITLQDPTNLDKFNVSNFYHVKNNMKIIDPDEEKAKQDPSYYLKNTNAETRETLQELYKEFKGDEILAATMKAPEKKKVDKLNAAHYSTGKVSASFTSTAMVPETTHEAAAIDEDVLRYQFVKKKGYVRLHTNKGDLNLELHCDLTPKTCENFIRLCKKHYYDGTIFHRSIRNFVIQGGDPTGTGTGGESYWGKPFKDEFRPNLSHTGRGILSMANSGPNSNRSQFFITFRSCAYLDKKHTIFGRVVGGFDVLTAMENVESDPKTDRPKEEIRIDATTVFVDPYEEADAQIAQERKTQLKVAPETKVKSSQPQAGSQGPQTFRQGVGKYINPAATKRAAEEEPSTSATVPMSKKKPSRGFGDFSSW
UniProt Q14165: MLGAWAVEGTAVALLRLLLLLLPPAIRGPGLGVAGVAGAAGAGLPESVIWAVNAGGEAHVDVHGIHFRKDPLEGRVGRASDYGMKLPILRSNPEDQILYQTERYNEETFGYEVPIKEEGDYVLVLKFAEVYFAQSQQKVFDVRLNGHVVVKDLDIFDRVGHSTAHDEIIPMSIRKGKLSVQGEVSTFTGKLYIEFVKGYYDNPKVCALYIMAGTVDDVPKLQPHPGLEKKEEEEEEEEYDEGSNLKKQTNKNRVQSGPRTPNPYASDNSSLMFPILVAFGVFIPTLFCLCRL
UniProt Q15050: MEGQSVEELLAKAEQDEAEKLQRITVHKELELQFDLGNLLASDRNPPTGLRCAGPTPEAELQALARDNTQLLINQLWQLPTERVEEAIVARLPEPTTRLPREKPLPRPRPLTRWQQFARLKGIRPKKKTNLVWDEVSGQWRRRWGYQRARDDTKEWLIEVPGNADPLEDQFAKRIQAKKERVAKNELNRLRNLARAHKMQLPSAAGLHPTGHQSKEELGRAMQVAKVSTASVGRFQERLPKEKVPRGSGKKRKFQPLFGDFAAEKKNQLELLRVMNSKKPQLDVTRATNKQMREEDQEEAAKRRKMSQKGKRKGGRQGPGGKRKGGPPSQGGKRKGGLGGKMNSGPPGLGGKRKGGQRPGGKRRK
UniProt Q14258, whole entry: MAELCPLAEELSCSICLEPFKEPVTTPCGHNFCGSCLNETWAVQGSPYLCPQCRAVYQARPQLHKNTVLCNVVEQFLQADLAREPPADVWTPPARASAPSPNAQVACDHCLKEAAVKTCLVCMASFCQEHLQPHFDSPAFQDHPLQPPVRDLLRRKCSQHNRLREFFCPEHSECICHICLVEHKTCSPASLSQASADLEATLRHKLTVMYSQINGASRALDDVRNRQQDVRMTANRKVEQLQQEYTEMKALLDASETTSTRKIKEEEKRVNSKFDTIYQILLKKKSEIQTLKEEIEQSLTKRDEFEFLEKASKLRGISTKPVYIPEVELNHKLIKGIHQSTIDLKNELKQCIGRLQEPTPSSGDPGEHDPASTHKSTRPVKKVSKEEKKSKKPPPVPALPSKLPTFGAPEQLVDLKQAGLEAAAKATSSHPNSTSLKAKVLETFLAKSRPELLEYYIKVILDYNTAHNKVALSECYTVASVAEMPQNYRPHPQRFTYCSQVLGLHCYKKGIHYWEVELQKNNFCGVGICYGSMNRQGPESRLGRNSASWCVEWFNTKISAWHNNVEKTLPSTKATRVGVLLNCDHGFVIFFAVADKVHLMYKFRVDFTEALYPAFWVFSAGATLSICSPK
UniProt Q12772: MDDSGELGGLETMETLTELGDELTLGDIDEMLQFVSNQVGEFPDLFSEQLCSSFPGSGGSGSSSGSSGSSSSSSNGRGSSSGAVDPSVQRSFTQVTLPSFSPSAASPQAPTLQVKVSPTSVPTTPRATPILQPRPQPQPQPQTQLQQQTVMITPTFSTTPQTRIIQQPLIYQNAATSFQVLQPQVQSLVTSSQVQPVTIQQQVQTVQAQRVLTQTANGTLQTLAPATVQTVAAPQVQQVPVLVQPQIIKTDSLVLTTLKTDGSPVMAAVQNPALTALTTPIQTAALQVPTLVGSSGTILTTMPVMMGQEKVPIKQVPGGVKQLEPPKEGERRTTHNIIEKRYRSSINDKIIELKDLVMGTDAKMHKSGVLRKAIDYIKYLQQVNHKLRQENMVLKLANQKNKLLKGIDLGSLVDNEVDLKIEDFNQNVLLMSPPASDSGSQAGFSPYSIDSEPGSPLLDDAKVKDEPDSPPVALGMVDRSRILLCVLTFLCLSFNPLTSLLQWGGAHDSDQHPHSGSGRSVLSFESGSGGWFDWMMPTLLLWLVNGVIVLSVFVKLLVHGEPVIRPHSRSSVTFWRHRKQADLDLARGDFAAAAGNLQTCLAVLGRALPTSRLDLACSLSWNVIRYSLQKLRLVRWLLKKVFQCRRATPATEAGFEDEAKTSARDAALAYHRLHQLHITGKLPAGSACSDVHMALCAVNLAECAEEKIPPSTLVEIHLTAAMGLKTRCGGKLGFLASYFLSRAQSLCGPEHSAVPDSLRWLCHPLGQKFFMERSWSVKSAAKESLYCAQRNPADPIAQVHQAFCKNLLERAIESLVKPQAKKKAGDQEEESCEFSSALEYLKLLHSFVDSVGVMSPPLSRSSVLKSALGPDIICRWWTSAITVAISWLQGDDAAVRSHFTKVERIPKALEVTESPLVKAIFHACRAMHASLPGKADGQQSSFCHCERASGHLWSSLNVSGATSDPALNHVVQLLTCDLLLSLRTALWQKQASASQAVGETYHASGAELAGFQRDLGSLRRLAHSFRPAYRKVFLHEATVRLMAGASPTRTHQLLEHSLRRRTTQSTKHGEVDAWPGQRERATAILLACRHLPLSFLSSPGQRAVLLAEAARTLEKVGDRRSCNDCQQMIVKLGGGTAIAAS
UniProt Q12872: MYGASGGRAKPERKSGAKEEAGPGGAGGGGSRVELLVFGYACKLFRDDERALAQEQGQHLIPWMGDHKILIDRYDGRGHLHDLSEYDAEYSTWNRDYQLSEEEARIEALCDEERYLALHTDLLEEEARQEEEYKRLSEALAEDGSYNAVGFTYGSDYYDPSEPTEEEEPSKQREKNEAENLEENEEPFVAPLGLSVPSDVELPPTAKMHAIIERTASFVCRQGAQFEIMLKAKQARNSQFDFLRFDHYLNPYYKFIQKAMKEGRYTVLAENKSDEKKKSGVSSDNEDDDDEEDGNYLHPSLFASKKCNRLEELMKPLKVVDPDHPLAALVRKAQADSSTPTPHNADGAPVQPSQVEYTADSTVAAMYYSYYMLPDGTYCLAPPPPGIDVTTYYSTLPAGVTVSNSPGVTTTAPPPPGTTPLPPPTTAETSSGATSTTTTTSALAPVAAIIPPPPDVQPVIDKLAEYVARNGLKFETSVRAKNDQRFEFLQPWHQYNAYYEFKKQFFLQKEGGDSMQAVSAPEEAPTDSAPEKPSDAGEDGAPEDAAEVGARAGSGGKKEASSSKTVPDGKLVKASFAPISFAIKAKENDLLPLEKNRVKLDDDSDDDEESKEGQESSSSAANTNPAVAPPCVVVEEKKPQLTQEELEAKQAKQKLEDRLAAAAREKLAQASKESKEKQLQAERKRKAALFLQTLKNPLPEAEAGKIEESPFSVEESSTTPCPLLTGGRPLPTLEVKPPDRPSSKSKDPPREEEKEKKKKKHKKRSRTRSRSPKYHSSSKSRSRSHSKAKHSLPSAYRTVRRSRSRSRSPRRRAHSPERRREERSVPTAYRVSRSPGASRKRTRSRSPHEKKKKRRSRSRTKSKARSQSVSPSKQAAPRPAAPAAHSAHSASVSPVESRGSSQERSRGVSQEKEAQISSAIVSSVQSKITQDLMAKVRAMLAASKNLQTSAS

Compound: Nc1ncnc2c1ncn2[C@@H]1O[C@H](COP(=O)(O)OP(=O)(O)NP(=O)(O)O)[C@@H](O)[C@H]1O [adenylyl imidodiphosphate]
Assay: NP40-soluble protein abundance relative to vehicle (solubility fold change) (ratio); higher = more soluble protein in presence of AMP-PNP
Procedure, shortened: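 Across three independent experiments, values are fold changes against the detergent-processed vehicle for each replicate, based on vsn-normalised intensities. The samples were Jurkat crude lysate treated with eight concentrations (0.1 to 10 mM) for 10 min at room temperature and then 3 min at 37 °C. Lysate was solubilised with 0.8% NP40 and benzonase, ultracentrifuged, and the supernatant analysed by TMT-labelled LC-MS/MS.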

Target	NP40-soluble protein abundance (concentration: 1mM)	NP40-soluble protein abundance (concentration: 2mM)	NP40-soluble protein abundance (concentration: 4mM)	NP40-soluble protein abundance (concentration: 6mM)	NP40-soluble protein abundance (concentration: 8mM)	NP40-soluble protein abundance (concentration: 10mM)
UniProt Q14980 and related entries	1.04 ± 0.022	1.06 ± 0.09	0.961 ± 0.04	0.918 ± 0.016	0.875 ± 0.039	0.906 ± 0.056
UniProt Q13332 and related entries	0.98 ± 0.01	1.03 ± 0.032	0.993 ± 0.017	0.986 ± 0.029	0.978 ± 0.053	1 ± 0.031
UniProt Q14562	1.05 ± 0.027	1.04 ± 0.037	1.08 ± 0.03	1.04 ± 0.044	1.09 ± 0.049	1.09 ± 0.061
GNA13 (UniProt Q14344)	0.956 ± 0.03	0.875 ± 0.13	0.938 ± 0.023	0.908 ± 0.018	0.9221 ± 0.0076	0.8788 ± 0.0061
UniProt Q15018	1 ± 0.041	1.03 ± 0.026	0.977 ± 0.018	0.958 ± 0.032	0.9313 ± 0.0068	0.949 ± 0.047
MVP (UniProt Q14764)	1.03 ± 0.047	1.04 ± 0.05	0.995 ± 0.05	1.02 ± 0.046	1.01 ± 0.037	1.02 ± 0.074
XRCC4 (UniProt Q13426)	1.1 ± 0.069	1.12 ± 0.061	1.15 ± 0.1	1.24 ± 0.043	1.24 ± 0.068	1.27 ± 0.1
UniProt Q14643 and related entries	0.996 ± 0.061	0.944 ± 0.11	1.01 ± 0.063	0.967 ± 0.11	0.957 ± 0.11	0.949 ± 0.13
UniProt Q15057 and related entries	1.003 ± 0.0092	0.996 ± 0.022	1.008 ± 0.0091	0.974 ± 0.021	0.969 ± 0.034	0.983 ± 0.025
BLMH (UniProt Q13867)	0.943 ± 0.046	0.869 ± 0.11	0.915 ± 0.043	0.933 ± 0.041	0.978 ± 0.069	0.911 ± 0.099
UniProt Q13884 and related entries	0.9984 ± 0.004	1.042 ± 0.002	1.02 ± 0.021	1.01 ± 0.039	1.02 ± 0.023	1.02 ± 0.026
TSTA3 (UniProt Q13630)	0.984 ± 0.018	0.97 ± 0.035	0.991 ± 0.078	0.974 ± 0.033	0.995 ± 0.072	0.969 ± 0.041
UniProt Q14257 and related entries	1.02 ± 0.015	1.03 ± 0.032	0.921 ± 0.011	0.861 ± 0.022	0.838 ± 0.034	0.807 ± 0.049
UniProt Q13188	1.01 ± 0.035	1.02 ± 0.02	1.02 ± 0.019	0.979 ± 0.051	0.965 ± 0.032	0.968 ± 0.036
UniProt Q13242	1 ± 0.056	1.16 ± 0.012	1.08 ± 0.063	1.19 ± 0.068	1.16 ± 0.058	1.28 ± 0.088
UniProt Q12769 and related entries	1 ± 0.024	0.9518 ± 0.0046	0.9433 ± 0.006	0.9621 ± 0.0016	0.99281 ± 0.00096	0.991 ± 0.019
UniProt Q14156 and related entries	0.9764 ± 0.0041	0.961 ± 0.041	0.9737 ± 0.0064	0.952 ± 0.023	0.973 ± 0.015	0.953 ± 0.018
UniProt Q14155-1|B1ALK7	1.02 ± 0.016	1 ± 0.013	0.993 ± 0.018	0.952 ± 0.048	0.937 ± 0.022	0.925 ± 0.025
GALNT2 (UniProt Q10471)	0.961 ± 0.023	0.939 ± 0.044	0.951 ± 0.014	0.959 ± 0.02	0.957 ± 0.011	0.954 ± 0.021
CIRBP (UniProt Q14011)	1.04 ± 0.033	1.09 ± 0.05	1.1 ± 0.078	1.09 ± 0.025	1.12 ± 0.068	1.21 ± 0.13

Target	NP40-soluble protein abundance (concentration: 1mM)	NP40-soluble protein abundance (concentration: 2mM)	NP40-soluble protein abundance (concentration: 4mM)	NP40-soluble protein abundance (concentration: 6mM)	NP40-soluble protein abundance (concentration: 8mM)	NP40-soluble protein abundance (concentration: 10mM)
UniProt Q08J23 and related entries	1.01 ± 0.011	0.999 ± 0.05	1.08 ± 0.027	1.13 ± 0.043	1.18 ± 0.022	1.17 ± 0.043
UniProt Q15046	0.936 ± 0.07	0.891 ± 0.14	0.914 ± 0.11	0.918 ± 0.13	0.898 ± 0.097	0.87 ± 0.15
SNX1 (UniProt Q13596)	1 ± 0.021	0.998 ± 0.017	0.978 ± 0.032	1.02 ± 0.034	1.02 ± 0.028	1.03 ± 0.017
UniProt Q15054 and related entries	1.02 ± 0.028	1.01 ± 0.037	0.9859 ± 0.0026	0.948 ± 0.02	0.9417 ± 0.0086	0.954 ± 0.013
TFDP2 (UniProt Q14188)	1 ± 0.043	1.02 ± 0.046	1.01 ± 0.051	1.015 ± 0.01	1.016 ± 0.01	1.02 ± 0.013
SMC1A (UniProt Q14683)	1.02 ± 0.036	1.05 ± 0.03	1.01 ± 0.015	1.03 ± 0.052	1 ± 0.035	1.04 ± 0.052
UniProt Q13243	1.1 ± 0.056	1.2 ± 0.091	1.17 ± 0.07	1.19 ± 0.013	1.208 ± 0.0093	1.36 ± 0.12
MORF4L2 (UniProt Q15014)	1.03 ± 0.014	1.091 ± 0.0075	1.07 ± 0.057	1.05 ± 0.036	1.07 ± 0.059	1.08 ± 0.012
BRD3 (UniProt Q15059)	1.08 ± 0.017	1.13 ± 0.082	1.15 ± 0.053	1.16 ± 0.086	1.19 ± 0.069	1.2 ± 0.086
TRIM28 (UniProt Q13263)	1.02 ± 0.023	1.03 ± 0.049	1.02 ± 0.015	1.03 ± 0.015	1.02 ± 0.033	1.029 ± 0.0084
PDAP1 (UniProt Q13442)	1.07 ± 0.072	1.17 ± 0.026	1.13 ± 0.048	1.26 ± 0.093	1.24 ± 0.085	1.35 ± 0.12
UniProt Q12981 and related entries	1.002 ± 0.0086	1.03 ± 0.063	1 ± 0.024	1.01 ± 0.023	0.996 ± 0.016	0.986 ± 0.026
UniProt Q14789 and related entries	1.02 ± 0.019	1.06 ± 0.059	1.01 ± 0.012	0.983 ± 0.034	0.9388 ± 0.0075	0.97 ± 0.011
UniProt Q14642 and related entries	1.02 ± 0.012	0.9962 ± 0.0061	1 ± 0.04	0.971 ± 0.014	1.0206 ± 0.00092	0.981 ± 0.01
DNAJC3 (UniProt Q13217)	0.978 ± 0.031	0.9648 ± 0.0063	0.973 ± 0.011	1.01 ± 0.014	0.985 ± 0.021	0.999 ± 0.022
UniProt Q13615 and related entries	1.04 ± 0.043	1.02 ± 0.011	1.02 ± 0.045	0.989 ± 0.036	1 ± 0.022	0.982 ± 0.02
UniProt Q14814 and related entries	0.98 ± 0.03	1.04 ± 0.073	0.982 ± 0.062	0.959 ± 0.015	0.946 ± 0.021	0.945 ± 0.048
NCAPD2 (UniProt Q15021)	0.973 ± 0.022	0.967 ± 0.015	0.987 ± 0.028	0.996 ± 0.018	0.987 ± 0.037	0.97 ± 0.044
G3BP1 (UniProt Q13283)	1.1 ± 0.028	1.15 ± 0.06	1.17 ± 0.05	1.19 ± 0.087	1.2 ± 0.1	1.23 ± 0.086
TRIM32 (UniProt Q13049)	1.019 ± 0.0082	0.981 ± 0.039	1.02 ± 0.027	0.982 ± 0.045	0.951 ± 0.022	1 ± 0.04

Some values from the list:
Value of UniProt Q12981 and related entries under NP40-soluble protein abundance (concentration: 4mM): 1 ± 0.024
Value of BRD3 (UniProt Q15059) under NP40-soluble protein abundance (concentration: 2mM): 1.13 ± 0.082
Value of TRIM28 (UniProt Q13263) under NP40-soluble protein abundance (concentration: 2mM): 1.03 ± 0.049
Value of UniProt Q13615 and related entries under NP40-soluble protein abundance (concentration: 2mM): 1.02 ± 0.011

Carrying on.

Target	NP40-soluble protein abundance (concentration: 1mM)	NP40-soluble protein abundance (concentration: 2mM)	NP40-soluble protein abundance (concentration: 4mM)	NP40-soluble protein abundance (concentration: 6mM)	NP40-soluble protein abundance (concentration: 8mM)	NP40-soluble protein abundance (concentration: 10mM)
AHNAK (UniProt Q09666)	1.03 ± 0.024	1.09 ± 0.075	1.04 ± 0.035	0.999 ± 0.023	0.947 ± 0.012	0.984 ± 0.049
COX17 (UniProt Q14061)	1 ± 0.028	1.05 ± 0.045	1 ± 0.018	0.925 ± 0.029	0.911 ± 0.015	0.928 ± 0.053
PPIL2 (UniProt Q13356)	1.03 ± 0.017	1.02 ± 0.029	1.04 ± 0.012	1.03 ± 0.026	1.02 ± 0.036	1.03 ± 0.039
ARHGEF6 (UniProt Q15052)	0.9922 ± 0.0094	0.998 ± 0.013	0.984 ± 0.0079	0.956 ± 0.025	0.94 ± 0.018	0.954 ± 0.019
MLEC (UniProt Q14165)	1.02 ± 0.035	0.962 ± 0.073	1.01 ± 0.037	1.03 ± 0.023	1.032 ± 0.009	1.01 ± 0.028
UniProt Q13438 and related entries	1.02 ± 0.014	1.01 ± 0.052	1 ± 0.024	0.994 ± 0.015	0.98 ± 0.041	0.987 ± 0.012
RRS1 (UniProt Q15050)	1.03 ± 0.012	0.997 ± 0.037	0.99 ± 0.035	0.959 ± 0.029	0.978 ± 0.022	0.972 ± 0.015
UniProt Q13409-3|Q13409-2	0.952 ± 0.039	0.946 ± 0.07	0.923 ± 0.054	0.922 ± 0.075	0.904 ± 0.051	0.89 ± 0.06
UniProt Q14139 and related entries	0.974 ± 0.022	0.96 ± 0.013	0.977 ± 0.016	0.977 ± 0.04	0.97 ± 0.049	0.948 ± 0.021
UniProt Q13043	1.03 ± 0.01	1.02 ± 0.015	1.005 ± 0.0051	0.979 ± 0.028	0.9559 ± 0.0058	0.961 ± 0.038
TRIM25 (UniProt Q14258)	1.03 ± 0.06	1.07 ± 0.097	1.04 ± 0.037	1.09 ± 0.017	1.07 ± 0.051	1.06 ± 0.015
ZNF638 (UniProt Q14966)	1.06 ± 0.02	1.11 ± 0.068	1.09 ± 0.02	1.1 ± 0.069	1.09 ± 0.048	1.15 ± 0.064
UniProt Q15020 and related entries	1.02 ± 0.019	1.01 ± 0.016	1.03 ± 0.025	1.03 ± 0.014	1.03 ± 0.022	1.04 ± 0.04
EIF2B1 (UniProt Q14232)	0.987 ± 0.022	0.966 ± 0.024	0.995 ± 0.048	1.06 ± 0.1	1.08 ± 0.061	1.05 ± 0.049
HSPA14 (UniProt Q0VDF9)	1.01 ± 0.046	0.998 ± 0.032	1.01 ± 0.034	1.012 ± 0.0091	1.03 ± 0.059	1.02 ± 0.049
SREBF2 (UniProt Q12772)	0.988 ± 0.02	1.01 ± 0.031	0.969 ± 0.024	0.984 ± 0.029	0.99925 ± 0.00021	0.968 ± 0.025
MRPL49 (UniProt Q13405)	1.01 ± 0.12	0.996 ± 0.05	0.98 ± 0.093	0.941 ± 0.1	0.963 ± 0.09	0.963 ± 0.13
UniProt Q12872 and related entries	1.04 ± 0.04	1.11 ± 0.061	1.12 ± 0.043	1.17 ± 0.097	1.2 ± 0.1	1.33 ± 0.1
DPYD (UniProt Q12882)	0.9983 ± 0.0072	0.973 ± 0.033	0.992 ± 0.013	0.965 ± 0.011	0.976 ± 0.03	0.954 ± 0.016
TWF1 (UniProt Q12792)	0.943 ± 0.028	0.94 ± 0.015	0.9383 ± 0.0042	0.941 ± 0.028	0.9185 ± 0.009	0.954 ± 0.026
